From the supplement of paper PMC9744312
Where a name gives a salt, the structure may show the parent alone. The list shows a part of the results. The data scatter; read single values as rough.

The compounds below were run on Peyronie's disease tunica albuginea primary fibroblasts (assay: cell viability (DRAQ5 nuclear stain) relative to TGF-beta1-only control; higher = more viable cells). Conditions: 10 µM; TGF-beta1 10 ng/mL; 72 h.

Compound | cell viability [%]
CC/C(=C(/CC)c1ccc(O)cc1)c1ccc(O)cc1 [Diethylstilbestrol] | 88.5
CC1=C(/C=C/C(C)=C/C=C/C(C)=C\C(=O)O)C(C)(C)CCC1 [Isotretinoin] | 86.9
NC(N)=Nc1nc(CSCC/C(N)=N/S(N)(=O)=O)cs1 [Famotidine] | 94.8
Cc1cc(-c2ccccc2)nnc1NCCN1CCOCC1 [Minaprine dihydrochloride] | 36.5
COc1cc(NC(C)CCCN)c2ncccc2c1 (stereo unspecified) [Primaquine Diphosphate] | 72.2
CC(=O)CC/C=C(\C)CC/C=C(\C)CC/C=C(\C)CCC=C(C)C [Teprenone] | 99.1
C=C1/C(=C\C=C2/CCC[C@]3(C)[C@@H]([C@H](C)/C=C/[C@H](C)C(C)C)CC[C@@H]23)C[C@@H](O)C[C@@H]1O [Doxercalciferol] | 68.4
CCCCN1CCCCC1C(=O)Nc1c(C)cccc1C (stereo unspecified) [Bupivacaine HCl] | 94.1
CO/N=C1\C[C@]2(C[C@@H]3C[C@@H](C/C=C(\C)C[C@@H](C)/C=C/C=C4\CO[C@@H]5[C@H](O)C(C)=C[C@@H](C(=O)O3)[C@]45O)O2)O[C@H](/C(C)=C/C(C)C)[C@H]1C [Moxidectin] | 80.6
CCN(CCO)CCCC(C)Nc1ccnc2cc(Cl)ccc12 (stereo unspecified) [Hydroxychloroquine Sulfate] | 86.9
Cc1nc(Nc2ncc(C(=O)Nc3c(C)cccc3Cl)s2)cc(N2CCN(CCO)CC2)n1 [Dasatinib] | 61
Cc1nc(Nc2ncc(C(=O)Nc3c(C)cccc3Cl)s2)cc(N2CCN(CCO)CC2)n1 [Dasatinib hydrochloride] | 41
Cc1nc(Nc2ncc(C(=O)Nc3c(C)cccc3Cl)s2)cc(N2CCN(CCO)CC2)n1 [Dasatinib Monohydrate] | 49.6
Cc1nc(-c2ccc(OCC(C)C)c(C#N)c2)sc1C(=O)O [Febuxostat] | 65.7
C[C@@H](O)[C@H]1C(=O)N2C(C(=O)[O-])=C(SC3Cn4cnc[n+]4C3)[C@H](C)[C@H]12 (stereo partly specified) [Biapenem] | 95
CC(C(=O)O)c1ccc2c(c1)CC(=O)c1ccccc1S2 (stereo unspecified) [Zaltoprofen] | 89.9
CN(C)c1ccc(C(=C2C=CC(=[N+](C)C)C=C2)c2ccc(N(C)C)cc2)cc1 [Crystal Violet] | 50.8
CC(=O)[C@H]1CC[C@H]2[C@@H]3CC=C4C[C@@H](O)CC[C@]4(C)[C@H]3CC[C@]12C [Pregnenolone] | 86.7
COc1ccc(CC2c3cc(OC)c(OC)cc3CC[N+]2(C)CCC(=O)OCCCCCOC(=O)CC[N+]2(C)CCc3cc(OC)c(OC)cc3C2Cc2ccc(OC)c(OC)c2)cc1OC (stereo unspecified) [Atracurium Besylate] | 80.9
O=c1ccc2ccccc2o1 [Coumarin] | 96.2
CCOc1ccc(C[C@H]2NC(=O)CCSSC[C@@H](C(=O)N3CCC[C@H]3C(=O)N[C@@H](CCCN)C(=O)NCC(N)=O)NC(=O)[C@H](CC(N)=O)NC(=O)[C@H]([C@@H](C)O)NC(=O)[C@H]([C@@H](C)CC)NC2=O)cc1 [Atosiban Acetate] | 96.1
CN(C)CCCN1c2ccccc2Sc2ccc(Cl)cc21 [Chlorpromazine HCl] | 86.6

Pulled one by one from above (two):
Compound | cell viability [%]
CC(C(=O)O)c1ccc2c(c1)CC(=O)c1ccccc1S2 (stereo unspecified) [Zaltoprofen] | 89.9
CC1=C(/C=C/C(C)=C/C=C/C(C)=C\C(=O)O)C(C)(C)CCC1 [Isotretinoin] | 86.9

Remaining list, next part

Compound | cell viability [%]
CCOc1ccccc1OC(c1ccccc1)C1CNCCO1 (stereo unspecified) [Reboxetine mesylate] | 93.4
O=c1[nH]cnc2c1ncn2[C@@H]1O[C@H](CO)[C@@H](O)[C@H]1O [Inosine] | 87.4
COc1cc([C@@H]2c3cc4c(cc3[C@@H](O[C@@H]3O[C@@H]5CO[C@@H](c6cccs6)O[C@H]5[C@H](O)[C@H]3O)[C@H]3COC(=O)[C@H]23)OCO4)cc(OC)c1O [Teniposide] | 73.6
Nc1ccc(S(=O)(=O)Nc2ccccn2)cc1 [Sulfapyridine] | 92.1
Cc1[nH]c2ccccc2c1CCNCc1ccc(/C=C/C(=O)NO)cc1 [Panobinostat (LBH589)] | 50.8
COc1ccnc(C[S+]([O-])c2nc3cc(OC(F)F)ccc3[nH]2)c1OC (stereo unspecified) [Pantoprazole] | 92.7
COc1ccnc(C[S+]([O-])c2nc3cc(OC(F)F)ccc3[nH]2)c1OC (stereo unspecified) [Pantoprazole sodium] | 91.3
Nc1ccn([C@@H]2O[C@H](CO)[C@@H](O)[C@@H]2O)c(=O)n1 [Cytarabine hydrochloride] | 64.6
Nc1ccn([C@@H]2O[C@H](CO)[C@@H](O)[C@@H]2O)c(=O)n1 [Cytarabine] | 70.7
O=c1[nH]c(=O)c2ccccc2o1 [Carsalam] | 85.3
CN(C)C/C=C/C(=O)Nc1cc2c(Nc3ccc(F)c(Cl)c3)ncnc2cc1O[C@H]1CCOC1 [Afatinib (BIBW2992) Dimaleate] | 50.3
CN(C)C/C=C/C(=O)Nc1cc2c(Nc3ccc(F)c(Cl)c3)ncnc2cc1O[C@H]1CCOC1 [Afatinib (BIBW2992)] | 79.8
CC(C)(O)c1ccccc1CC[C@@H](SCC1(CC(=O)O)CC1)c1cccc(/C=C/c2ccc3ccc(Cl)cc3n2)c1 [Montelukast Sodium] | 85.9
O=C1NC(=O)C(c2ccccc2)(c2ccccc2)N1 [Phenytoin] | 96.7
CCN[C@@H]1C[C@H](N)[C@@H](O[C@H]2OC(CN)=CC[C@H]2N)[C@H](O)[C@H]1O[C@H]1OC[C@](C)(O)[C@H](NC)[C@H]1O [Netilmicin Sulfate] | 101
C#CCC(Cc1cnc2nc(N)nc(N)c2n1)c1ccc(C(=O)N[C@@H](CCC(=O)O)C(=O)O)cc1 (stereo partly specified) [Pralatrexate] | 87.8
O=C(C[S+]([O-])Cc1ccco1)NC/C=C\COc1cc(CN2CCCCC2)ccn1 (stereo unspecified) [Lafutidine] | 91.4
COc1c(N2CCNC(C)C2)c(F)cc2c(=O)c(C(=O)O)cn(C3CC3)c12 (stereo unspecified) [Gatifloxacin] | 82.4
O=C(c1ccccc1)c1ccc2n1CCC2C(=O)O (stereo unspecified) [Ketorolac] | 102
CN(C)CC(c1ccc(O)cc1)C1(O)CCCCC1 (stereo unspecified) [Desvenlafaxine] | 92
CN(C)CC(c1ccc(O)cc1)C1(O)CCCCC1 (stereo unspecified) [Desvenlafaxine Succinate] | 96.7
NC(=O)[C@@H]1CCCN1C(=O)[C@H](Cc1c[nH]cn1)NC(=O)[C@@H]1CCC(=O)N1 [Protirelin] | 84.4

Compound | cell viability [%]
CO/N=C(\C(=O)N[C@@H]1C(=O)N2C(C(=O)OC(C)OC(C)=O)=C(COC(N)=O)CS[C@H]12)c1ccco1 (stereo partly specified) [Cefuroxime axetil] | 85.9
CCc1c(Cl)c(O)c(Cl)c(O)c1C(=O)O[C@H]1[C@H](O)[C@H](OC)[C@H](OC/C2=C\C=C\C[C@H](O)/C(C)=C/[C@H](CC)[C@@H](O[C@@H]3OC(C)(C)[C@@H](OC(=O)C(C)C)[C@H](O)[C@@H]3O)/C(C)=C/C(C)=C/C[C@@H]([C@@H](C)O)OC2=O)O[C@@H]1C [Fidaxomicin] | 81.1
COc1ccccc1OCC(O)COC(N)=O (stereo unspecified) [Methocarbamol] | 94.5
COC(=O)Nc1nc2cc([S+]([O-])c3ccccc3)ccc2[nH]1 (stereo unspecified) [Oxfendazole] | 78.9
CCN(CC)CCOCCOC(=O)C(CC)(CC)c1ccccc1 [Oxeladin Citrate] | 87.3
CCCOc1ccc(C(=O)OCCN(CC)CC)cc1N [Proparacaine HCl] | 83.9
CC(C)C[C@H](NC(=O)CNC(=O)c1cc(Cl)ccc1Cl)B1OC(=O)C(CC(=O)O)(CC(=O)O)O1 [Ixazomib Citrate (MLN9708)] | 33.1
CC[C@@H](CO)NCCN[C@@H](CC)CO [Ethambutol 2HCl] | 92.9
C[C@]1(Cn2ccnn2)[C@H](C(=O)O)N2C(=O)C[C@H]2S1(=O)=O [Tazobactam] | 88.4
C[C@@H]1COC(Nc2ccc3ncnc(Nc4ccc(OCc5nccs5)c(Cl)c4)c3c2)=N1 [Varlitinib] | 69.9
CC(=O)OCC(=O)[C@H]1CC[C@H]2[C@@H]3CCC4=CC(=O)CC[C@]4(C)[C@H]3CC[C@]12C [Deoxycorticosterone acetate] | 83.8
CC1(C)[C@@H](OC(=O)CCC(=O)O)CC[C@]2(C)[C@H]3C(=O)C=C4[C@@H]5C[C@@](C)(C(=O)O)CC[C@]5(C)CC[C@@]4(C)[C@]3(C)CC[C@@H]12 [Carbenoxolone Sodium] | 88.6
CC(CN(C)C)CN1c2ccccc2Sc2ccccc21 (stereo unspecified) [Alimemazine Tartrate] | 92.8
C#C[C@]1(O)CC[C@H]2[C@@H]3CCC4=CC(=O)CC[C@@H]4[C@H]3CC[C@@]21CC [Levonorgestrel] | 109
N=C(N)NCCN1CCCCCCC1 [Guanethidine Sulfate] | 95.6
N=C(N)NCCN1CCCCCCC1 [Guanethidine Monosulfate] | 97.1
C=CC(=O)Nc1cccc(Oc2nc(Nc3ccc(N4CCN(C)CC4)cc3)nc3ccsc23)c1 | 64.4
C[C@H](NC(=O)C(=O)Nc1ccccc1C(C)(C)C)C(=O)N[C@@H](CC(=O)O)C(=O)COc1c(F)c(F)cc(F)c1F [Emricasan] | 94
CC(C(=O)O)c1ccc(C(=O)c2ccccc2)s1 (stereo unspecified) [Tiaprofenic acid] | 105
O=C1CCCC(=O)C1C(=O)c1ccc(C(F)(F)F)cc1[N+](=O)[O-] [Nitisinone] | 98.8
CC(=O)N(CC(O)CN(C(C)=O)c1c(I)c(C(=O)NCC(O)CO)c(I)c(C(=O)NCC(O)CO)c1I)c1c(I)c(C(=O)NCC(O)CO)c(I)c(C(=O)NCC(O)CO)c1I (stereo unspecified) [Iodixanol] | 75.6
CC[C@H](C)C[C@H](C)CCCCCCCCC(=O)N[C@H]1C[C@@H](O)[C@@H](NCCN)NC(=O)[C@@H]2[C@@H](O)CCN2C(=O)[C@H]([C@H](O)CCN)NC(=O)[C@H]([C@H](O)[C@@H](O)c2ccc(O)cc2)NC(=O)[C@@H]2C[C@@H](O)CN2C(=O)[C@H]([C@@H](C)O)NC1=O [Caspofungin Acetate] | 99
